No constants are given. Whether binding was seen depends on the method and setting. In cells and extracts the contact can be indirect. Binding calls can cover weak binding; strength is not graded here.

Protein sequences, listed by entry. Tags and fused reporters are not part of them.
UniProt O75386: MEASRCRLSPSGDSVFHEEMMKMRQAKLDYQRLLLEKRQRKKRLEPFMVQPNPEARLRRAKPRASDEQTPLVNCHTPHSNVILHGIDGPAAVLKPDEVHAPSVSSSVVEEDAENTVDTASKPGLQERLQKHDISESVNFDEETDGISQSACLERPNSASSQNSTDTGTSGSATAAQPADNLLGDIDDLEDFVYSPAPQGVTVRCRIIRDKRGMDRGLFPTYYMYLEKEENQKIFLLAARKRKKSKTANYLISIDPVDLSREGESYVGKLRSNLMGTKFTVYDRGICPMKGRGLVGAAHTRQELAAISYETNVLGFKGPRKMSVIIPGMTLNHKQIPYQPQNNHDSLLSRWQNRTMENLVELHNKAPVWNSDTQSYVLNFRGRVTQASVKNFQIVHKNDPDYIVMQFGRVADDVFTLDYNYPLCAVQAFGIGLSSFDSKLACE

This test has as its target GST-TULP3 full length (human) (UniProt O75386). Description: pull-down.

Regarding “Myc-ARL13B Δ2 (deletion of seven conserved aa following the palmitoylation site) (from UniProt Q3SXY8-1)”, the binding entry is reported as “binds”.

For the substance “Myc-ARL13B Δ1 (deletion of 4 conserved aa preceding the palmitoylation site) (from UniProt Q3SXY8-1)”, the binding result is “binds”.

Regarding “Myc-ARL13B Δ19 (helix deleted) (from UniProt Q3SXY8-1) (domain or fragment)”, the binding entry is listed as “binds weakly”.

On to “Myc-ARL13B Δ1,2 (double deletion mutant in the full-length protein) (from UniProt Q3SXY8-1)”, for which the binding entry is listed as “binds weakly”.

For the origin of these results see article doi:10.1101/2021.05.25.445488.
